Source: PMC12552473
These are yes or no findings as the source states them, for the method shown. Binding seen in cells or lysates may run through a third protein. A yes stands for co-enrichment or nearness to the bait. Other partners may have been found. Where a sequence is shown, tags or fusion partners need not be part of it.

The chains behind the UniProt entries cited, without tags or fusion partners.
UniProt Q16665: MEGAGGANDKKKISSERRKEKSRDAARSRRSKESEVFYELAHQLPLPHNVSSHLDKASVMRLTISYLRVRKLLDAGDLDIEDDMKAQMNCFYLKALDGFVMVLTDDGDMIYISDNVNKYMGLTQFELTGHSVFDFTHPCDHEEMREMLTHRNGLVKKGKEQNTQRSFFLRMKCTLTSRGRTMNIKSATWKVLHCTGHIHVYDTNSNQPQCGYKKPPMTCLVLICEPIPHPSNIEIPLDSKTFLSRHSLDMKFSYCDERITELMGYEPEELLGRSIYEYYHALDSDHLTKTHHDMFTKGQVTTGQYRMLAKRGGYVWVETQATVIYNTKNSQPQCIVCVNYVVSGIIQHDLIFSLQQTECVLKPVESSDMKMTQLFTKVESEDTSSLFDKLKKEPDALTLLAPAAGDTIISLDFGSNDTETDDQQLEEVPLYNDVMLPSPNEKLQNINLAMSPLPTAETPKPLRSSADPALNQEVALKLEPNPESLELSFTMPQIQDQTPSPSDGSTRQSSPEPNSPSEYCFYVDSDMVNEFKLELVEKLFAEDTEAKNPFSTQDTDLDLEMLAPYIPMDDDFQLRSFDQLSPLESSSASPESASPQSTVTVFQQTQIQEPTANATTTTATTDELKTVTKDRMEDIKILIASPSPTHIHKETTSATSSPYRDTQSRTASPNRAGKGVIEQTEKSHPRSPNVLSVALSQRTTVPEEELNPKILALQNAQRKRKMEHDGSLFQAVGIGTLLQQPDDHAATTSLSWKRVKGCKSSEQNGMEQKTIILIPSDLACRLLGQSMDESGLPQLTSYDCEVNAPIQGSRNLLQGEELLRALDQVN

Target: T1, Flag-tagged UHRF1, stably overexpressed in SKOV3 cells (UniProt Q96T88)
T1 sequence: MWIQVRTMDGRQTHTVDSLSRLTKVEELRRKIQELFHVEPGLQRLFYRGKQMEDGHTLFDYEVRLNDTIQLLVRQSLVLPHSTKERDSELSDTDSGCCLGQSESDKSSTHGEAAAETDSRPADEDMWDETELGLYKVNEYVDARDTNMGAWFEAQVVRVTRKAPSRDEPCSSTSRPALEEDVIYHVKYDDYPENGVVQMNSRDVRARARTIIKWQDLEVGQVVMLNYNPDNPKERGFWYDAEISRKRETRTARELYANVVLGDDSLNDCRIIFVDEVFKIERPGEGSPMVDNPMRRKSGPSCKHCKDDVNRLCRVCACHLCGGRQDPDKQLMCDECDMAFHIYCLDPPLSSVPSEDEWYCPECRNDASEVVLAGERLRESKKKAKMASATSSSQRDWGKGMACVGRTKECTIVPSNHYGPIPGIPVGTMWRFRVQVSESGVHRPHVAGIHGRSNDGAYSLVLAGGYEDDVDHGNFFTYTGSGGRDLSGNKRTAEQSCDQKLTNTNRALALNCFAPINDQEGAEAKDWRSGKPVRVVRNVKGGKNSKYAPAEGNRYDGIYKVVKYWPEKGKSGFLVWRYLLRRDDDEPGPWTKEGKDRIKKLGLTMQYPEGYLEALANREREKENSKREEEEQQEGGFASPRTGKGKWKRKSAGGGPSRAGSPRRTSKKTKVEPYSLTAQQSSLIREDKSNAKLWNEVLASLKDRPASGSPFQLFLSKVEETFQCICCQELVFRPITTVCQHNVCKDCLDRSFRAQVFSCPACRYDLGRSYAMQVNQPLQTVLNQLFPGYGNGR
Assay: affinity purification with mass spectrometry; pull-down with a Flag antibody from UHRF1-overexpressing SKOV3 cells under hypoxic conditions, then mass spectrometry

For “Hypoxia-inducible factor 1 α (HIF-1α), endogenous in SKOV3 cells (from UniProt Q16665 1-826)”, the binding was “binds”.
